Construct, isoform or probe ends are uncertain for at least one entry. For some assays here: Negatives hold for the conditions tested.
Assays:
MBP-BcWRKY22 [1] = test: competition with a labelled probe; details: mutated competitor 10x, 100x, 250x, did not affect binding to N1; LightShift Chemiluminescent EMSA Kit (Beyotime); 3 ug crude protein, 100 nM biotin-labeled probe; pH and temperature not stated; recombinant protein; protein details: N-terminal MBP (pMAL-MBP vector)
MBP-BcWRKY22 [2] = test: EMSA; details: 100 nM biotin probe, 3 ug protein; LightShift Chemiluminescent EMSA Kit (Beyotime); 3 ug crude protein, 100 nM biotin-labeled probe; pH and temperature not stated; recombinant protein; protein details: N-terminal MBP (pMAL-MBP vector)

Sequence	binding result (MBP-BcWRKY22 [1])	binding result (MBP-BcWRKY22 [2])
TATTCGTACAAGTACAACAAAAAAAAACTAATAAAATAAAATAGC (double strand) [BcCAT2 W-box-2 mutated probe (AGTCAA to AAAAAA)]	no binding	–
TATTCGTACAAGTACAACAAGTCAAAACTAATAAAATAAAATAGC (double strand) [BcCAT2 promoter W-box-2 probe]	–	binds

From article PMC10525746
